The name of at least one read-out is uncertain.
System: 45 lines of breast cancer cells
Assay: ATCC Breast Cancer Cell Panel, doxorubicin sensitivity vs CREB3L1 mRNA
Type: cell-based, human
Conditions: 45 breast cancer cell lines

With COc1cccc2c1C(=O)c1c(O)c3c(c(O)c1C2=O)C[C@@](O)(C(=O)CO)C[C@@H]3O[C@H]1C[C@H](N)[C@H](O)[C@H](C)O1 [doxorubicin, Doxorubicin] the “relation of doxorubicin IC50 to CREB3L1 mRNA” value was “negative correlation”.
